Laboratory results published in paper PMC11655868.
Like-named read-outs stand apart in the source and are kept apart here. Results are given in words; binding and its absence hold for the method and conditions named. In cells and extracts the contact can be indirect. Some results given as binding are weak or reduced against the parent protein; the word gives no strength. For part of these data: Where a sequence is shown, tags or fusion partners need not be part of it.

Sequences of proteins named here, by UniProt entry; tags and fusion partners are left off.
UniProt Q01094: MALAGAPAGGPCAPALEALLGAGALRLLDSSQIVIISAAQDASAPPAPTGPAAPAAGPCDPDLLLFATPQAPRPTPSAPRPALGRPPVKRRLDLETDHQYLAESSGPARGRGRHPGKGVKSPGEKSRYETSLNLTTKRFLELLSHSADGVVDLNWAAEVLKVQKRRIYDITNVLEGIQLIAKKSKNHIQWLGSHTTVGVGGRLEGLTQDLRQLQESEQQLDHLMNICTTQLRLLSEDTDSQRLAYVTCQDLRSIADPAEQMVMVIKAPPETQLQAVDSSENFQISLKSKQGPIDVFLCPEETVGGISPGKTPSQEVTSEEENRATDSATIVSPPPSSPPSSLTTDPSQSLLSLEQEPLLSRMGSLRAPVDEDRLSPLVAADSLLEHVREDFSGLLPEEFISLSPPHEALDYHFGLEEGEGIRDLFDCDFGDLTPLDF
UniProt P20700: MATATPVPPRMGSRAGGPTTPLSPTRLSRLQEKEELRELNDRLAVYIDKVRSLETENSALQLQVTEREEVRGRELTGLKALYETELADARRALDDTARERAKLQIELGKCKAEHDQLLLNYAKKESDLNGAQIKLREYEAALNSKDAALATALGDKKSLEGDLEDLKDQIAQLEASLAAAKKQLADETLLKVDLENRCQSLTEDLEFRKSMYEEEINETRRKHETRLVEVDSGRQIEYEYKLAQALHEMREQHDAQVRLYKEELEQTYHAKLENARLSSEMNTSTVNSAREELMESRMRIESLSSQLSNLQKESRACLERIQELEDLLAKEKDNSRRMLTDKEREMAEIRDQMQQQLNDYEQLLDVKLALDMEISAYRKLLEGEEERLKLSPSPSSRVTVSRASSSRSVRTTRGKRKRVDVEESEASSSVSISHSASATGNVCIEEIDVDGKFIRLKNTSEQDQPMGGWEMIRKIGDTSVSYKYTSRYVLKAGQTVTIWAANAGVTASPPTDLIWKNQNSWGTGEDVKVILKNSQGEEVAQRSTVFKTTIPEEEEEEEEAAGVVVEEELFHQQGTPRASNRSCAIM
UniProt P51784: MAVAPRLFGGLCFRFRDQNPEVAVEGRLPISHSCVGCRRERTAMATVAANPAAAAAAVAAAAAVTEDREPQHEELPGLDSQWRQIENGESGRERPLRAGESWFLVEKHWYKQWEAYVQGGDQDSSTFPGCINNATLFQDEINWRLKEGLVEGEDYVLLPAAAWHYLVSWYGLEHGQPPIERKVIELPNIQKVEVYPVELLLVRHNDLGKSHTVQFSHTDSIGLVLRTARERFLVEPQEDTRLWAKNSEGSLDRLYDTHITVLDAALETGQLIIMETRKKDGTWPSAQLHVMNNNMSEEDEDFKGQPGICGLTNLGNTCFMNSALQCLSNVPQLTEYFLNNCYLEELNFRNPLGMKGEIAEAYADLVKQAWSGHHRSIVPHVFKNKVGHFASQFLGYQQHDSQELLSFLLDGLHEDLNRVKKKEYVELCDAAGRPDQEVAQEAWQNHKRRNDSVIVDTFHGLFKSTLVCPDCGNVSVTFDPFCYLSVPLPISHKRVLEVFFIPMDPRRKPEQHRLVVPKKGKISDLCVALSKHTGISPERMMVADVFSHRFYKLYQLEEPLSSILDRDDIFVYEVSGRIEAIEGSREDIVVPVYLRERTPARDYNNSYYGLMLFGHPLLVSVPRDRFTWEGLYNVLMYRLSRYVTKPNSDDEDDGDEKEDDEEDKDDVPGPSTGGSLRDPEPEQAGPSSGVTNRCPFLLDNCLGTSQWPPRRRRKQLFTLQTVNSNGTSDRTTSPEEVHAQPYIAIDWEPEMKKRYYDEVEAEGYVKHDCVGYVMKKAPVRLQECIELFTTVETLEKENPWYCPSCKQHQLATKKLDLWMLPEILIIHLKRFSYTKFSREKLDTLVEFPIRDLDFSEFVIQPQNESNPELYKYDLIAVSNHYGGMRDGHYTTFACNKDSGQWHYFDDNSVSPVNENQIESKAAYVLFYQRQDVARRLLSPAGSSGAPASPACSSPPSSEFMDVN

T1: full-length RRM1 (Flag-tagged construct) (UniProt P23921)
T1 sequence: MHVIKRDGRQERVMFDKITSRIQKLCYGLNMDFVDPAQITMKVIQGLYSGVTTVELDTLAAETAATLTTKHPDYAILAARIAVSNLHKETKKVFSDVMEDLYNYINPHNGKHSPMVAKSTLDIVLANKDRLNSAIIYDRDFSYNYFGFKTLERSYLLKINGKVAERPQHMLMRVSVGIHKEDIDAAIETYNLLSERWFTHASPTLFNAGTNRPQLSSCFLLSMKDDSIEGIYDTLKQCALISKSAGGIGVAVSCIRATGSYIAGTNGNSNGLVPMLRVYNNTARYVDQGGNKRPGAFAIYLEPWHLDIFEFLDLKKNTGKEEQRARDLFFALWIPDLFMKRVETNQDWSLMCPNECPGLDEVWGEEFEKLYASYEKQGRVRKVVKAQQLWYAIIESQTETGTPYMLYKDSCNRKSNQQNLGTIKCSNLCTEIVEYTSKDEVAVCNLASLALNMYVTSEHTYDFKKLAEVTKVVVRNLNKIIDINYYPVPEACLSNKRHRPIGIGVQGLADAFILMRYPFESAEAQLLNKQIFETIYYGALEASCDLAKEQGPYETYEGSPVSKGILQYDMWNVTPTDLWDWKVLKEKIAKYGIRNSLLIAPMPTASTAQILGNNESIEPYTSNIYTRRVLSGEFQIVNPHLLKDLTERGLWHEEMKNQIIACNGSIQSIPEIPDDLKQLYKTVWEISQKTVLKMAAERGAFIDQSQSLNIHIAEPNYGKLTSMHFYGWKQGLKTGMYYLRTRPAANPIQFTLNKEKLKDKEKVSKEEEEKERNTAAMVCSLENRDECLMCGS

T2: Ribonucleotide reductase M1 (RRM1) (human (endogenous in HeLa)) (UniProt P23921)
T2 sequence: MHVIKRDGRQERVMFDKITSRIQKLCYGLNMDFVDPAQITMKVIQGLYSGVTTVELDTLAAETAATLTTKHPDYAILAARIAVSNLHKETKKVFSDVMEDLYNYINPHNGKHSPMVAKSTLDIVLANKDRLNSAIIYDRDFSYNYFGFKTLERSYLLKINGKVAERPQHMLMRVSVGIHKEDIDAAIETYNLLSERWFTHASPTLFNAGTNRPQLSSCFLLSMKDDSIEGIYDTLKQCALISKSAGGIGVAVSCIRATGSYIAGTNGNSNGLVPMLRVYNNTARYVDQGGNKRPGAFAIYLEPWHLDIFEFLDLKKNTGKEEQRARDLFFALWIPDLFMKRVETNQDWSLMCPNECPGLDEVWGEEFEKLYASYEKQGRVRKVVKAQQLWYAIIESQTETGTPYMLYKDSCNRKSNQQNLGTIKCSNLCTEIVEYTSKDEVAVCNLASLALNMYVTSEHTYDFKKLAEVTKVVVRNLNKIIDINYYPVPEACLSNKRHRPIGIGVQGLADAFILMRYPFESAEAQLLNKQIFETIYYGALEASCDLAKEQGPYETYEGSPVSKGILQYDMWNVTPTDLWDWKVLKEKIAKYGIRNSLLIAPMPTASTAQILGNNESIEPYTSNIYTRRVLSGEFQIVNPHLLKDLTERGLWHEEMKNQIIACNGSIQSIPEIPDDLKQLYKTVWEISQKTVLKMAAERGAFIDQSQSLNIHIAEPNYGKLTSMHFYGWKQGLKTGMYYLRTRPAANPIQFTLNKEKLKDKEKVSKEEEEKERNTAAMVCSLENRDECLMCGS


Columns and labels:
[1] = molecular target: T1, full-length RRM1 (Flag-tagged construct); test: co-IP; HEK293T cells transfected with RRM1 constructs, 5 Gy irradiation; immunoprecipitation with anti-flag antibody, immunoblot
[2] = molecular target: T2, Ribonucleotide reductase M1 (RRM1) (human (endogenous in HeLa)); test: co-IP; endogenous proteins in HeLa cell lysates; respective antibody or non-specific IgG with protein G-agarose beads overnight at 4 °C, five washes with PBS, Western blot; cells untreated or 5 Gy irradiated, wild-type compared with RRM1 knockdown
[3] = molecular target: E2F1 (human (endogenous in HeLa)) (UniProt Q01094); test: as above
[4] = molecular target: T2, Ribonucleotide reductase M1 (RRM1) (human (endogenous in HeLa)); test: as above; remark: listed apart in the source

binding [1]	binding [2]	binding [3]	binding [4]	Molecule
binds	binds	–	–	LaminB1 (from UniProt P20700 1-586)
binds	binds	binds	–	USP11 (from UniProt P51784 1-963)
–	–	–	binds	NUP50 (protein, UniProt Q9UKX7 1-468) MAKRNAEKELTDRNWDQEDEAEEVGTFSMASEEVLKNRAIKKAKRRNVGFESDTGGAFKGFKGLVVPSGGGRFSGFGSGAGGKPLEGLSNGNNITSAPPFASAKAAADPKVAFGSLAANGPTTLVDKVSNPKTNGDSQQPSSSGLASSKACVGNAYHKQLAALNCSVRDWIVKHVNTNPLCDLTPIFKDYEKYLANIEQQHGNSGRNSESESNKVAAETQSPSLFGSTKLQQESTFLFHGNKTEDTPDKKMEVASEKKTDPSSLGATSASFNFGKKVDSSVLGSLSSVPLTGFSFSPGNSSLFGKDTTQSKPVSSPFPTKPLEGQAEGDSGECKGGDEEENDEPPKVVVTEVKEEDAFYSKKCKLFYKKDNEFKEKGIGTLHLKPTANQKTQLLVRADTNLGNILLNVLIPPNMPCTRTGKNNVLIVCVPNPPIDEKNATMPVTMLIRVKTSEDADELHKILLEKKDA
